Test results published in patent US20030175848A1, “Substituted dithiobisnitrobenzenes and their applications” (Institut Pasteur De Lille, priority 1998, published 2003).
Where two headings read alike, the source gives them in different places.

Sequences of proteins named here, by UniProt entry; tags and fusion partners are left off. A change or cut given only in a name is not applied to a line headed by its entry.
UniProt P28593: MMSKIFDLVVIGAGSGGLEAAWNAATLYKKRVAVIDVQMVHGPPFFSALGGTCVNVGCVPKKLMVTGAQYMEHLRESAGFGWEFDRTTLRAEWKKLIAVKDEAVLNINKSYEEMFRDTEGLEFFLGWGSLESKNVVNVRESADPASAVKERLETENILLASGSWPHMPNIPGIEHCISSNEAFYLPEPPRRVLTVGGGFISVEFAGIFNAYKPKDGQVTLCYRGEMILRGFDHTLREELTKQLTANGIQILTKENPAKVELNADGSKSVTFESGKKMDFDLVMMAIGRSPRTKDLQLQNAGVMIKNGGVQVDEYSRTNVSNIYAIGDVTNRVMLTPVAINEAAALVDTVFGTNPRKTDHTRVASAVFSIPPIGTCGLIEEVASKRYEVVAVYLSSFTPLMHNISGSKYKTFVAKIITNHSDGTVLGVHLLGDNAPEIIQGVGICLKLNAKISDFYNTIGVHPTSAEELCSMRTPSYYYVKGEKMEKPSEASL

Key:
[1] = target: T1, trypanothione reductase (TcTR) (Trypanosoma cruzi, UniProt P28593); conditions: T(S)2 as substrate; reference [38]; cited from earlier work
[2] = target: T1, trypanothione reductase (TcTR); experiment: biochemical

CN(C)CCCN1c2ccccc2CCc2ccc(Cl)cc21 [clomipramine]
Ki [1]: ~6.53 µM
Ki [2]: 8 ± 0.9 µM
